Results reported in the supplement of paper PMC10849652.
The other results are listed elsewhere or left out. Residues, ends and D or L forms follow the SMILES beside them. *: point of attachment. Cbz = O=C(OCc1ccccc1)*

The chains behind the UniProt entries cited, without tags or fusion partners. Where a name states a change or a piece, a line headed by the entry shows the natural chain unless it says otherwise.
UniProt O43809, whole entry, looked up: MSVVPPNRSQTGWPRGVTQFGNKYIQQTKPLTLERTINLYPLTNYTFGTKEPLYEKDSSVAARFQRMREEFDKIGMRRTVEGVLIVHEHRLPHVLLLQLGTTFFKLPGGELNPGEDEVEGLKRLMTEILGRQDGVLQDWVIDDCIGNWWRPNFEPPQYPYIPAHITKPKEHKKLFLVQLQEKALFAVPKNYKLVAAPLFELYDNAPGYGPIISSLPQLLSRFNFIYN
UniProt Q96P11: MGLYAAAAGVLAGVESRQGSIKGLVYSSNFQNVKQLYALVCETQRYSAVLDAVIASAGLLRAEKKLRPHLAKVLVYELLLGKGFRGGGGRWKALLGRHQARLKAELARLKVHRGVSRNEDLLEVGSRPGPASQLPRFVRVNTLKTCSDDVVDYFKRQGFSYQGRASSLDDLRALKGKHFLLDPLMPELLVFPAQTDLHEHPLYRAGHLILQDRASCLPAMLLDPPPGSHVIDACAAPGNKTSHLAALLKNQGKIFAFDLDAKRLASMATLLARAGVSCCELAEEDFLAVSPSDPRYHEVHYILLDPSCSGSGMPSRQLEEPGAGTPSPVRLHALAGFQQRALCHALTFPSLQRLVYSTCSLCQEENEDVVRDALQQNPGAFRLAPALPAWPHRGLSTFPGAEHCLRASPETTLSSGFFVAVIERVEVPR
UniProt Q08J23, whole entry, looked up: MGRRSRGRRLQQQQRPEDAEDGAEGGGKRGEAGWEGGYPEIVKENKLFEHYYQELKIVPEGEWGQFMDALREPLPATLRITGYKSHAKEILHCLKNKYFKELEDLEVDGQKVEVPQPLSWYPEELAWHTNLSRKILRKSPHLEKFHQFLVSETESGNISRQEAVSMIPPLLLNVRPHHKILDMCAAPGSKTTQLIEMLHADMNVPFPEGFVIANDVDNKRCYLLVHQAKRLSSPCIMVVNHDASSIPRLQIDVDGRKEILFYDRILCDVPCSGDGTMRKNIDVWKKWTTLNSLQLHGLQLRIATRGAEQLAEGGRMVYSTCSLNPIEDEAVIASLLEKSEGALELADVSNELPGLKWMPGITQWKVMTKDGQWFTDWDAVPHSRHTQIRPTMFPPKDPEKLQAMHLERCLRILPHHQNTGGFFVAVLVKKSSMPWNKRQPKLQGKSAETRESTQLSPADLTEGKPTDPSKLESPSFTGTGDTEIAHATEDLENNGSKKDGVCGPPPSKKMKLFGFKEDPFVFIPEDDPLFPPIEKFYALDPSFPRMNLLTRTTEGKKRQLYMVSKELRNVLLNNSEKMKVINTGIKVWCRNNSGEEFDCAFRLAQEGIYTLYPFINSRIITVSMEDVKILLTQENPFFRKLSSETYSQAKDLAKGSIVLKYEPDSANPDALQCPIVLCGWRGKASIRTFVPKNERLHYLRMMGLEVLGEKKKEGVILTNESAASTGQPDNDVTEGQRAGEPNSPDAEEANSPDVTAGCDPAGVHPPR
UniProt P57740: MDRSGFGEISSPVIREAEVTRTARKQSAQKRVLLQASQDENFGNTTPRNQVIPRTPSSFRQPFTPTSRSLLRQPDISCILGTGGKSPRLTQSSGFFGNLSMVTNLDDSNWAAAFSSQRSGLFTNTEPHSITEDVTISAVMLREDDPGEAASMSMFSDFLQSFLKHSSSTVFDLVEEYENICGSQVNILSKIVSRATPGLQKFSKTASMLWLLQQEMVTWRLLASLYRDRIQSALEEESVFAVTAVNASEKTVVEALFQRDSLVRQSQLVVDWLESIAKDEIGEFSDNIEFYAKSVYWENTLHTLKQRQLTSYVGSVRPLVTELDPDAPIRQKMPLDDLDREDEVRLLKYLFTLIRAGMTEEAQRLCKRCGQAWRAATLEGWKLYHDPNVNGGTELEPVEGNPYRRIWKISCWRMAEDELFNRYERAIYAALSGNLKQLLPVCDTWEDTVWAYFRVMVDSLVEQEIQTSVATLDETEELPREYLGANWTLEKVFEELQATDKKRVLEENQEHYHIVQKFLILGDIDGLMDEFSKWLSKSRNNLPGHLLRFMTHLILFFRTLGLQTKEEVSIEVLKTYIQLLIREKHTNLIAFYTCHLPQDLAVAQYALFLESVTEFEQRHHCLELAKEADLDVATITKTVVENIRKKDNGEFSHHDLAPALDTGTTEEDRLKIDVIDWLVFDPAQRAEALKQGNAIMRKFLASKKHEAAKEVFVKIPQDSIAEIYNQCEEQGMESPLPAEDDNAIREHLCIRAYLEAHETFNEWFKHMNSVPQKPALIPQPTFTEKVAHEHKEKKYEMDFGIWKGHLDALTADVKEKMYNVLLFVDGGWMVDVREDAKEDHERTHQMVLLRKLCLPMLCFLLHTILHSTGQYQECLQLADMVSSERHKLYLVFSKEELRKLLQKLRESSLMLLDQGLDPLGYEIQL
UniProt Q5TFE4: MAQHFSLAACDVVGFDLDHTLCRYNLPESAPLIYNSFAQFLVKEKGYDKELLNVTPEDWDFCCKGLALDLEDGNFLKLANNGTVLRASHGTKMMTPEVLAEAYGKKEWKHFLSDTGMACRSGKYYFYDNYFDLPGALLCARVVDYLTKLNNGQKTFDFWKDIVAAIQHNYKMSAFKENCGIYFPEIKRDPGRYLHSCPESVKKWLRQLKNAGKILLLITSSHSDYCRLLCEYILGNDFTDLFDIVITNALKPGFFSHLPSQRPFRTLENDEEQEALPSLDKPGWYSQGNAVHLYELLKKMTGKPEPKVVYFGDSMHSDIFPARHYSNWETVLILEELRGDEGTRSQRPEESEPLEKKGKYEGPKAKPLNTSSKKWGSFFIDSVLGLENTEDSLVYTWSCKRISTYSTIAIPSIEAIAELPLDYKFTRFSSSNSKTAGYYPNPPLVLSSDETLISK
UniProt O43913: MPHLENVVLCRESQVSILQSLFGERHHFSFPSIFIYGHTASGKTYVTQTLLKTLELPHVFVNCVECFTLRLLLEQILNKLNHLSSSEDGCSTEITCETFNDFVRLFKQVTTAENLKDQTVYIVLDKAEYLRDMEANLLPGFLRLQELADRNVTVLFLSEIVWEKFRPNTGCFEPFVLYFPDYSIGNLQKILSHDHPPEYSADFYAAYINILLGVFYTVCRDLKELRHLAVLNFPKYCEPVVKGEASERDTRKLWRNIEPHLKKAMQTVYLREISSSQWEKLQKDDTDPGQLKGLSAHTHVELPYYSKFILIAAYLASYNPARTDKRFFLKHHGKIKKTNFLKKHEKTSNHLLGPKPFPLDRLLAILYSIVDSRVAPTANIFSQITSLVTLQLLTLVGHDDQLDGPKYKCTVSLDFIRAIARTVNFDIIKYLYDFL
UniProt Q9H1E3: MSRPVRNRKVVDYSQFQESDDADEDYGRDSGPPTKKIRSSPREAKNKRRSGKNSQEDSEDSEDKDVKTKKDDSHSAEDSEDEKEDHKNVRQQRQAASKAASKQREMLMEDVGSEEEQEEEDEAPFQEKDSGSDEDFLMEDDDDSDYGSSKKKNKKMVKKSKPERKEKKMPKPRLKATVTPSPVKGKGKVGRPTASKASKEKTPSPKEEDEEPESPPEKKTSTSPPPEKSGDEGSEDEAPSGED
UniProt Q8N573: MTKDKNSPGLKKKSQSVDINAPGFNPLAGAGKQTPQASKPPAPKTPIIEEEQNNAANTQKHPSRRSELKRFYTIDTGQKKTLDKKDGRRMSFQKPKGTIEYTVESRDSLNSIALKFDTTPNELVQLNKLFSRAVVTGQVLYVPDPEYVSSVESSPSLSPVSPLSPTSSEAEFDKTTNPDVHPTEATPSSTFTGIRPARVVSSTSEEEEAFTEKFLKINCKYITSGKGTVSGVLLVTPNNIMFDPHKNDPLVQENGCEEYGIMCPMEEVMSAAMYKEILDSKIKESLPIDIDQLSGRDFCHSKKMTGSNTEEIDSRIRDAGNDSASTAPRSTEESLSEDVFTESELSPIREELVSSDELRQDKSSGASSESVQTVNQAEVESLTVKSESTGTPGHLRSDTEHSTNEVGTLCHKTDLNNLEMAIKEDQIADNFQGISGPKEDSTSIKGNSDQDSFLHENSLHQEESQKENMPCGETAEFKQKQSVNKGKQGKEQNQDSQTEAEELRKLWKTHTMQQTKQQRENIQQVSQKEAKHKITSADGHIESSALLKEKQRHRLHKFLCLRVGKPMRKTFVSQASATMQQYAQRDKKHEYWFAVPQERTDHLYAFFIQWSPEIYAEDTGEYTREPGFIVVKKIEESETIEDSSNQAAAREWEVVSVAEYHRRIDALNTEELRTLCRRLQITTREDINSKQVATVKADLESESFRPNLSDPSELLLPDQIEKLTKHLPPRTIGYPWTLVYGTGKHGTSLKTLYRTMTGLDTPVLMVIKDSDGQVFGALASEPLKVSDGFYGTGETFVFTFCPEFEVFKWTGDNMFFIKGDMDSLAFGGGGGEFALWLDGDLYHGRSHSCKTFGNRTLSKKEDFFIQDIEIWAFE
UniProt P22059, whole entry, looked up: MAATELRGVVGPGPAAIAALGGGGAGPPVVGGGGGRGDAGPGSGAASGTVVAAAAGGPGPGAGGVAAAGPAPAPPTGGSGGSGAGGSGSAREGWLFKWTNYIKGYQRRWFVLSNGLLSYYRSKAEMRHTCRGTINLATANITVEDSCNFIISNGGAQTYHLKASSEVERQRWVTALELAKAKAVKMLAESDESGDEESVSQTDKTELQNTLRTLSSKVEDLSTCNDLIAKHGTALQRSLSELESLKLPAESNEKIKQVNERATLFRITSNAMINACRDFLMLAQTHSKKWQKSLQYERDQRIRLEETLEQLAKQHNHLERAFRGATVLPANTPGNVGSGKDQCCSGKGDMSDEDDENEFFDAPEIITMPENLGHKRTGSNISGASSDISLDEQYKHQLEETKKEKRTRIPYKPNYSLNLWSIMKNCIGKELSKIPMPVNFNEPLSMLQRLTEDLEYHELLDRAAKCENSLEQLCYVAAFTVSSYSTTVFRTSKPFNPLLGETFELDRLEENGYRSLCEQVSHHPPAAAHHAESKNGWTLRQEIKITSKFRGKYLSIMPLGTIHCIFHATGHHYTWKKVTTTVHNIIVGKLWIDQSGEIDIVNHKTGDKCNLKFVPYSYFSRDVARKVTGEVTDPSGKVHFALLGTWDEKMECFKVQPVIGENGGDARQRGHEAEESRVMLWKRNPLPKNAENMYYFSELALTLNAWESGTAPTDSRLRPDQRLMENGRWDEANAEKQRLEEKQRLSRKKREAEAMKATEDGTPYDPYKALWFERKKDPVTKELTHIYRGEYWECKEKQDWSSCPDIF
UniProt Q969T7: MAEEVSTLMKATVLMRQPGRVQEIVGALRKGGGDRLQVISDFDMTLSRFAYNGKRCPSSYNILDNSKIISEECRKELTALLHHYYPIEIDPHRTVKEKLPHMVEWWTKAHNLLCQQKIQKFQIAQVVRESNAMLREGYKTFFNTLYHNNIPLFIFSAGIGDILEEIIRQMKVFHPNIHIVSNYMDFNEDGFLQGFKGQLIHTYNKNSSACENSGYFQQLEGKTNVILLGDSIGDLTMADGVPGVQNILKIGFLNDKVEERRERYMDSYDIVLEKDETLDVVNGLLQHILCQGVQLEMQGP
UniProt Q9BW27: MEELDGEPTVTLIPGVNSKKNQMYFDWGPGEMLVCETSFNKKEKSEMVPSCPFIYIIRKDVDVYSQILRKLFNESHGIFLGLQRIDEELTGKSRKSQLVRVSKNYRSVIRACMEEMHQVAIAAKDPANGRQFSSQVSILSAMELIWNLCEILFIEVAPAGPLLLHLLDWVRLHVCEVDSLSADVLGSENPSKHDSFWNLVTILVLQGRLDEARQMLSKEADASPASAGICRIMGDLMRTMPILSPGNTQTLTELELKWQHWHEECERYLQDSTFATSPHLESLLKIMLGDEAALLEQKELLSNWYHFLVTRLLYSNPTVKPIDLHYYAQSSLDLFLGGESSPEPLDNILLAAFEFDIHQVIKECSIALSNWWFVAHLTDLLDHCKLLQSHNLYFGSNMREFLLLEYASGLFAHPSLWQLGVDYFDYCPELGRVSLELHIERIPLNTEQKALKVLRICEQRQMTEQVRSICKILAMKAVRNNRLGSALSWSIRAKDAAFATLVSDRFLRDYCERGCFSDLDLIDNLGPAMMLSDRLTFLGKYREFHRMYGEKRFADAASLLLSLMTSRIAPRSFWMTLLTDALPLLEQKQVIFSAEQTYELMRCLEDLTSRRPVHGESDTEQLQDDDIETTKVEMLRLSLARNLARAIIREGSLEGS
UniProt Q9BZD4: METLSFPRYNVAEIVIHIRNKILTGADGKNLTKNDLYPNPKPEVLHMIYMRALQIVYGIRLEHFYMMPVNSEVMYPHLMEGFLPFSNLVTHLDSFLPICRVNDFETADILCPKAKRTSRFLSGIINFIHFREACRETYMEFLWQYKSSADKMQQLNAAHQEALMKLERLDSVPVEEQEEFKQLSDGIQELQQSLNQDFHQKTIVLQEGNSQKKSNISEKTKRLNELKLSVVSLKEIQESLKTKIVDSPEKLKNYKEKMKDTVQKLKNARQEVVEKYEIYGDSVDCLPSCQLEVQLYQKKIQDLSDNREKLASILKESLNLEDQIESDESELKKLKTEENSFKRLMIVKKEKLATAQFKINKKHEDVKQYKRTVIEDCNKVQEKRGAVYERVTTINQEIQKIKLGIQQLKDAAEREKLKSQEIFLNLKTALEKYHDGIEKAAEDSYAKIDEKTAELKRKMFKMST

Tests used:
Assay in all cases: log2 fold change, soluble protein after heating vs DMSO (PISA); higher = thermal stabilisation; K562 cells, 10 uM, 30 min; active = over 0.2 and 3.5 SD of the protein, either way, in both replicates (recomputed)
[1] = compound: C1COCCN1CCN2C3=CC=CC=C3N=C2NC(=O)C4=CC(=CC=C4)[N+](=O)[O-] [IRAK-1-4 Inhibitor I]
Method in brief: (§1)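 Values are thermal stability changes relative to control samples and are taken from duplicates. They are stated as log2 fold changes. Before quantification by TMTpro 16plex LC-MS/MS with equalised channel sums, K562 cells at 2×10^6 cells/mL were treated with 10 μM compound for 30 min, heated in aliquots for 3 min across 48°C-58°C, pooled, extracted in PBS with 0.5% NP-40 at 4°C, and centrifuged at 21,000xg for 90 min to give the soluble supernatant.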

[2] = compound: C=CC(=O)N1CCC[C@@H](n2nc(-c3ccc(Oc4ccccc4)cc3)c3c(N)ncnc32)C1 [ibrutinib]
Method in brief: as §1

[3] = compound: CC(=O)c1cnc2ccc(-c3cc(Cl)c(O)c(Cl)c3)nc2c1N[C@H]1CC[C@H](CN(C)C)CC1
Method in brief: as §1

[4] = compound: CC(C)(C)Cn1c(N)nc2ccc(-c3[nH]c(C(C)(C)C)nc3-c3ccc(F)cc3)nc21 [ralimetinib]
Method in brief: as §1

[5] = compound: CC(C)(O)CC(=O)NCCn1ccc2ncnc(Nc3ccc(Oc4cccc(C(F)(F)F)c4)c(Cl)c3)c21
Method in brief: as §1

[6] = compound: CC(C)C1=C2N=C(C=C(N2N=C1)NCC3=CC=CC=C3)NCCCCCCN
Method in brief: as §1

[7] = compound: CC(C)C[C@@H](C=O)NC(=O)[C@H](CC(C)C)NC(=O)[C@H](CC(C)C)NC(=O)OCc1ccccc1
Method in brief: as §1

[8] = compound: CC(C)N(C[C@H]1O[C@@H](n2cnc3c(N)ncnc32)[C@H](O)[C@@H]1O)[C@H]1C[C@@H](CCc2nc3cc(C(C)(C)C)ccc3[nH]2)C1 [pinometostat]
Method in brief: as §1

[9] = compound: CC1=C(C2=C(C=C1)C(=O)C3=CC=CC=C3N2CCCN)C
Method in brief: as §1

[10] = compound: CC1=C(C=C(C=C1)NC(=O)C2=CC(=CC=C2)C(C)(C)C#N)NC3=CC4=C(C=C3)N=CN(C4=O)C
Method in brief: as §1

[11] = compound: CC1=C(C=C(C=C1)NC(=O)C2=CC(=CC=C2)N(C)C)NC(=O)C3=CC=C(C=C3)O
Method in brief: as §1

[12] = compound: CC1=CC=C(C=C1)SC2=C3C=C(SC3=CN=C2)C(=O)N
Method in brief: as §1

[13] = compound: CC1=NC(=CC=C1)C2=C(N=C(N2)C(C)(C)C)C3=CC4=NC=CN=C4C=C3
Method in brief: as §1

[14] = compound: CCCCN(Cc1ccc(C(=O)NO)cc1)C(=O)Nc1ccccc1 [Nexturastat A]
Method in brief: as §1

[15] = compound: CCCS(=O)(=O)Nc1ccc(F)c(C(=O)c2c[nH]c3ncc(-c4ccc(Cl)cc4)cc23)c1F [vemurafenib]
Method in brief: as §1

[16] = compound: CCCS(=O)(=O)Nc1ccc(F)c(C(=O)c2c[nH]c3ncc(Cl)cc23)c1F
Method in brief: as §1

[17] = compound: CCCc1cc(C)[nH]c(=O)c1CNC(=O)c1cc(-c2ccnc(N3CCN(C)CC3)c2)cc2c1cnn2C(C)C
Method in brief: as §1

[18] = compound: CCN(CC)Cc1ccc2cc(COC(=O)Nc3ccc(C(=O)NO)cc3)ccc2c1 [givinostat]
Method in brief: as §1

[19] = compound: CCN(CCCOc1ccc2c(Nc3cc(CC(=O)Nc4cccc(F)c4)[nH]n3)ncnc2c1)CCOP(=O)(O)O [barasertib]
Method in brief: as §1

[20] = compound: CC1=C(C(CC(=O)N1)C2=CC=C(C=C2)C(F)(F)F)C(=O)NC3=C(C=C4C(=C3)C=NN4)F
Method in brief: as §1

Measured: log2 fold change

NUDT21 (UniProt O43809)
active: [3] -0.33 | [9] 0.246
inactive: [1] -0.057 | [2] 0.014 | [4] -0.022 | [5] 0.077 | [6] 0.066 | [7] 0.034 | [8] -0.022 | [10] 0.052 | [11] 0.077 | [12] -0.007 | [13] 0.019 | [14] 0 | [15] 0.02 | [16] -0.053 | [17] -0.013 | [18] -0.033 | [19] -0.023

NSUN5 isoform 2 (UniProt Q96P11)
inactive: [1] 0.088 | [2] 0.027 | [3] 0.018 | [4] 0.055 | [5] -0.031 | [6] 0.013 | [7] 0.013 | [8] 0.108 | [20] 0.096 | [9] -0.078 | [10] 0.038 | [11] 0.003 | [12] -0.039 | [13] -0.045 | [14] 0.007 | [15] -0.042 | [16] 0.073 | [17] 0.048 | [18] 0.008 | [19] -0.009

NSUN2 (UniProt Q08J23)
inactive: [1] -0.02 | [2] -0.029 | [3] -0.165 | [4] 0.062 | [5] -0.008 | [7] 0.026 | [8] 0.058 | [9] -0.075 | [10] -0.042 | [11] 0.013 | [12] -0.021 | [13] -0.009 | [14] 0.037 | [15] 0.016 | [16] 0.061 | [17] 0.019 | [18] -0.204 | [19] 0.037
active: [6] -0.314

Reprinted at random: 2 entries already listed.
NSUN5 isoform 2 (UniProt Q96P11)
inactive: [1] 0.088 | [2] 0.027 | [3] 0.018 | [4] 0.055 | [5] -0.031 | [6] 0.013 | [7] 0.013 | [8] 0.108 | [20] 0.096 | [9] -0.078 | [10] 0.038 | [11] 0.003 | [12] -0.039 | [13] -0.045 | [14] 0.007 | [15] -0.042 | [16] 0.073 | [17] 0.048 | [18] 0.008 | [19] -0.009

NUDT21 (UniProt O43809)
active: [3] -0.33 | [9] 0.246
inactive: [1] -0.057 | [2] 0.014 | [4] -0.022 | [5] 0.077 | [6] 0.066 | [7] 0.034 | [8] -0.022 | [10] 0.052 | [11] 0.077 | [12] -0.007 | [13] 0.019 | [14] 0 | [15] 0.02 | [16] -0.053 | [17] -0.013 | [18] -0.033 | [19] -0.023

(cont.)

OGFOD1 (UniProt Q8N543)
inactive: [1] 0.07 | [2] -0.036 | [3] 0.009 | [4] -0.05 | [5] -0.023 | [6] -0.018 | [7] 0.035 | [8] -0.011 | [9] 0.036 | [10] -0.013 | [11] -0.01 | [12] 0.013 | [13] 0.033 | [14] -0.061 | [15] -0.01 | [16] -0.006 | [17] 0.006 | [18] -0.112 | [19] 0.009

NUP205 (UniProt Q92621)
inactive: [1] -0.035 | [2] -0.038 | [3] -0.1 | [4] -0.027 | [5] 0.032 | [6] -0.167 | [7] -0.058 | [8] 0 | [9] 0.018 | [10] 0.009 | [11] 0.018 | [12] 0.002 | [13] 0.075 | [14] 0.151 | [15] 0.059 | [16] 0.084 | [17] -0.016 | [18] 0.076 | [19] 0.044

NUDT5 (UniProt C9JYY9)
inactive: [1] 0.108 | [2] 0.224 | [3] -0.252 | [5] 0.137 | [6] 0.092 | [8] 0.044 | [9] 0.312 | [10] 0.02 | [13] -0.299 | [14] 0.264 | [15] -0.303 | [18] -0.003 | [19] -0.032

NUP107 (UniProt P57740)
inactive: [1] -0.054 | [2] -0.152 | [3] -0.035 | [4] 0.035 | [5] 0.023 | [6] -0.005 | [7] 0.089 | [8] 0.165 | [9] -0.052 | [10] -0.035 | [11] 0.085 | [12] 0.117 | [13] 0.012 | [14] 0.17 | [15] 0.1 | [16] 0.219 | [17] -0.031 | [18] 0.011 | [19] 0.017

NT5DC1 (UniProt Q5TFE4)
inactive: [1] 0.049 | [2] 0.021 | [3] -0.039 | [4] -0.054 | [5] -0.019 | [6] 0.02 | [7] -0.011 | [8] -0.024 | [9] -0.022 | [10] 0.149 | [11] -0.018 | [12] -0.019 | [13] 0.021 | [14] -0.068 | [15] -0.001 | [16] -0.016 | [17] -0.003 | [18] 0.004 | [19] -0.039

ORC5 (UniProt O43913)
inactive: [1] 0.024 | [2] -0.014 | [3] -0.306 | [4] 0.015 | [6] -0.134 | [7] 0.005 | [8] 0.128 | [9] 0.08 | [10] -0.193 | [11] -0.089 | [12] 0 | [13] -0.038 | [15] 0.058 | [16] 0.058 | [17] 0.058 | [18] -0.009 | [19] 0.025

NUP160 (UniProt Q12769)
inactive: [1] -0.03 | [2] -0.041 | [3] -0.13 | [4] -0.002 | [5] -0.032 | [6] -0.137 | [7] -0.01 | [8] 0.058 | [9] -0.012 | [10] 0.006 | [11] 0.037 | [12] 0.023 | [13] 0.017 | [14] -0.037 | [15] -0.01 | [16] 0.083 | [17] 0.002 | [18] 0.018 | [19] 0.062

OBSCN (UniProt A6NGQ3)
inactive: [1] -0.147 | [2] -0.145 | [3] 0.064 | [4] -0.262 | [7] 0.059 | [8] -0.053 | [20] 0.103 | [9] -0.03 | [10] 0.102 | [11] -0.001 | [12] -0.057 | [13] -0.128 | [16] -0.088 | [19] 0.23

NUCKS1 (UniProt Q9H1E3)
active: [9] -0.454
inactive: [1] 0.094 | [2] -0.018 | [3] 0.208 | [4] -0.054 | [5] 0.018 | [6] 0.138 | [7] -0.029 | [8] -0.061 | [10] -0.036 | [11] 0.065 | [12] -0.014 | [13] 0.044 | [14] -0.061 | [15] 0.017 | [16] -0.061 | [17] -0.076 | [18] -0.004 | [19] 0.008

OGFOD3 isoform 2 (UniProt Q6PK18)
inactive: [1] 0.058 | [2] -0.099 | [3] 0.023 | [5] 0 | [6] -0.016 | [8] -0.006 | [20] 0.059 | [9] 0.002 | [10] 0.026 | [12] -0.072 | [13] -0.019 | [14] 0.023 | [15] -0.026 | [16] 0.002 | [17] -0.078 | [18] 0.081 | [19] 0.041

OXR1 (UniProt Q8N573)
inactive: [1] 0.048 | [2] 0.016 | [3] -0.002 | [4] -0.019 | [5] -0.035 | [6] -0.077 | [7] -0.004 | [8] 0.023 | [9] 0.009 | [10] 0.005 | [11] -0.003 | [12] 0.005 | [13] 0.052 | [14] -0.025 | [15] 0.023 | [16] -0.013 | [17] -0.062 | [18] 0.012 | [19] 0.027

OSBP (UniProt P22059)
inactive: [1] 0 | [2] -0.067 | [3] -0.029 | [4] -0.009 | [5] -0.076 | [6] 0.091 | [7] 0.017 | [8] -0.002 | [9] 0.024 | [10] 0.098 | [11] -0.011 | [12] -0.028 | [13] 0.022 | [14] -0.073 | [15] 0.015 | [16] 0.027 | [17] -0.003 | [18] -0.052 | [19] -0.001

NT5C3B (UniProt Q969T7)
inactive: [1] 0.03 | [2] 0.055 | [3] -0.022 | [4] -0.015 | [6] -0.061 | [7] -0.073 | [8] -0.039 | [20] 0.021 | [9] 0.033 | [10] 0.157 | [11] -0.101 | [12] 0.132 | [13] 0.031 | [15] 0.026 | [16] 0.055 | [17] 0.018 | [18] 0.014 | [19] 0.031

NUP85 (UniProt Q9BW27)
inactive: [1] -0.011 | [2] -0.027 | [3] -0.058 | [4] -0.036 | [5] -0.013 | [6] -0.048 | [7] -0.026 | [8] -0.033 | [9] 0.015 | [10] -0.02 | [11] 0.025 | [12] 0.102 | [13] -0.001 | [14] -0.041 | [15] 0.01 | [16] 0.019 | [17] -0.02 | [18] 0.015 | [19] 0.017

NUF2 (UniProt Q9BZD4)
inactive: [1] -0.419 | [2] -0.137 | [3] 0.021 | [5] 0.004 | [8] 0.56 | [20] -0.119 | [12] -0.03 | [13] -0.267 | [14] 0.352 | [15] 0.083 | [16] -0.037 | [17] 0.194 | [19] 0.05
